Among the data in PMC12238573 (Nature Communications, 2025) are binding values, retold here.

Chains of the proteins cited; added tags and fusions are not shown. Lines headed by an entry give the natural chain unless they say otherwise; changes in a name come on top.
UniProt Q14558: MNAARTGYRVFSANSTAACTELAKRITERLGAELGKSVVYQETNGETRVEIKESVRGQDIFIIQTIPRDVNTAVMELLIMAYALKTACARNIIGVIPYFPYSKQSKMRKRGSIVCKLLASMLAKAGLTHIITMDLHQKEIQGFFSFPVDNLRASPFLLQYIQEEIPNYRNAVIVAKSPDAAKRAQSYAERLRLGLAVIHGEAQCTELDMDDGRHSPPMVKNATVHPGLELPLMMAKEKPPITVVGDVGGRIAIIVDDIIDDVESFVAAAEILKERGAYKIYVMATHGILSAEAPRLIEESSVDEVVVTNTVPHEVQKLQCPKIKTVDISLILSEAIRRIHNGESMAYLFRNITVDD

Results are given in words; binding and its absence hold for the method and conditions named. A result given as binding can be weak or reduced; the word gives no strength.

The target in assay [1] is T1, PRPSAP2 (endogenous, mouse) (mouse (endogenous in NIH3T3 and C57BL/6 tissues)) (UniProt Q8R574).
T1 sequence: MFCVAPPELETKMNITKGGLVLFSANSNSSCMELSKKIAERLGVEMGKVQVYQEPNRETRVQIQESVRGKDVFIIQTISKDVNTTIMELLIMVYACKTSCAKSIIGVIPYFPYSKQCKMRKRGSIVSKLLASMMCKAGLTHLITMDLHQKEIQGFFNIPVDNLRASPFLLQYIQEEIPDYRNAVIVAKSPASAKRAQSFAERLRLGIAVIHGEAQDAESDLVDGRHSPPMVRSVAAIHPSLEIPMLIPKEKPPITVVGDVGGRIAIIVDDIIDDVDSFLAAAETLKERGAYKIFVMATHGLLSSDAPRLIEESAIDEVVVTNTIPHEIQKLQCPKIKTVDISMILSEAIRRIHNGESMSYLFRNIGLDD
The experiment in a line: SEC; native whole-cell lysates of NIH3T3 CRISPR knockout lines (P2/AP1/AP2, P2/AP1, P1/AP2, P1, P2, AP2, AP1, AP1/AP2, P1/AP1 KO), some re-expressing PRPS2, AP1 or AP2 constructs, on Superose 6 Increase 3.2/300; fractions analysed by Western blot. (In general: In gel filtration, larger molecules generally elute earlier.)

For assay [2], the target named is T2, PRPS2 (endogenous, mouse) (mouse (endogenous in NIH3T3 and C57BL/6 tissues)) (UniProt Q9CS42).
T2 sequence: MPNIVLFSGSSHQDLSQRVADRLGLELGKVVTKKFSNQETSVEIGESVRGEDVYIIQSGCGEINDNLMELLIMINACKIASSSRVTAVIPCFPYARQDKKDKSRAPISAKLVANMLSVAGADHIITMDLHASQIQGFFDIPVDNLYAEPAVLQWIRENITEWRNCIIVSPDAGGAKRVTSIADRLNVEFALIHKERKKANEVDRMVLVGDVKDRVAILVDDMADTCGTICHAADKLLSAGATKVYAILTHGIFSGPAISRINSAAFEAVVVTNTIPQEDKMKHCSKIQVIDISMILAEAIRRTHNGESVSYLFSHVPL
The assay is described as above.

Turning to “AP1 lacking the non-homologous region (NHR) (from UniProt Q14558)”, the binding result in assay [1] and in assay [2] was “binds” in each case. Turning to PRPSAP1-ALFA, long isoform, the binding result in assay [2] is “no binding”.
